Results published in the supplement of paper PMC4862054.
Most entries show no effect beyond the scatter of the controls.

Tests used:
Assay in all cases: normalised response (% of control), CellTox Green; higher = less cell death (100 = DMSO, 0 = benzethonium chloride kill control)
Settings in all cases: incubation time: 72 h
MCF-10A [1] = tested on: MCF-10A
Procedure: (§1)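 DSRT, 72 h incubation, CellTox Green / CellTiter-Glo readout. Signal is normalised to DMSO and benzethonium chloride controls. Value is the normalised response at dose 2.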

BT-549 [2] = tested on: BT-549
Procedure: as §1

Hs578T [3] = tested on: Hs578T
Procedure: as §1

MDA-MB-436 = tested on: MDA-MB-436
Procedure: as §1

DU-4475 [4] = tested on: DU-4475
Procedure: as §1

MDA-MB-453 [5] = tested on: MDA-MB-453
Procedure: as §1

HCC1937 = tested on: HCC1937
Procedure: as §1

CAL-51 [6] = tested on: CAL-51
Procedure: as §1

CAL-120 [7] = tested on: CAL-120
Procedure: as §1

MFM-223 [8] = tested on: MFM-223
Procedure: as §1

HCC1143 [9] = tested on: HCC1143
Procedure: as §1

CAL-148 [10] = tested on: CAL-148
Procedure: as §1

HDQ-P1 [11] = tested on: HDQ-P1
Procedure: as §1

HCC1599 [12] = tested on: HCC1599
Procedure: as §1

BT-474 [13] = tested on: BT-474
Procedure: as §1

CAL-85-1 [14] = tested on: CAL-85-1
Procedure: as §1

MDA-MB-231 [15] = tested on: MDA-MB-231
Procedure: as §1

MDA-MB-468 [16] = tested on: MDA-MB-468
Procedure: as §1

MCF-10A [17] = tested on: MCF-10A; remark: listed apart in the source
Procedure: (§2)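 DSRT, 72 h incubation, CellTox Green / CellTiter-Glo readout. Signal is normalised to DMSO and benzethonium chloride controls. Value is the normalised response at the lowest tested concentration.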

BT-549 [18] = tested on: BT-549; remark: listed apart in the source
Procedure: as §2

MDA-MB-231 [19] = tested on: MDA-MB-231; remark: listed apart in the source
Procedure: as §2

Hs578T [20] = tested on: Hs578T; remark: listed apart in the source
Procedure: as §2

DU-4475 [21] = tested on: DU-4475; remark: listed apart in the source
Procedure: as §2

MDA-MB-453 [22] = tested on: MDA-MB-453; remark: listed apart in the source
Procedure: as §2

CAL-51 [23] = tested on: CAL-51; remark: listed apart in the source
Procedure: as §2

CAL-120 [24] = tested on: CAL-120; remark: listed apart in the source
Procedure: as §2

MFM-223 [25] = tested on: MFM-223; remark: listed apart in the source
Procedure: as §2

HCC1143 [26] = tested on: HCC1143; remark: listed apart in the source
Procedure: as §2

MDA-MB-468 [27] = tested on: MDA-MB-468; remark: listed apart in the source
Procedure: as §2

CAL-148 [28] = tested on: CAL-148; remark: listed apart in the source
Procedure: as §2

HDQ-P1 [29] = tested on: HDQ-P1; remark: listed apart in the source
Procedure: as §2

HCC1599 [30] = tested on: HCC1599; remark: listed apart in the source
Procedure: as §2

BT-474 [31] = tested on: BT-474; remark: listed apart in the source
Procedure: as §2

CAL-85-1 [32] = tested on: CAL-85-1; remark: listed apart in the source
Procedure: as §2

Compound Cc1cnc(NC(=O)Nc2cc(Br)c(C)cc2OC[C@@H]2CNCCO2)cn1 [Rabusertib] (1 nM) has a normalised response (MCF-10A [1]) of 118%, a normalised response (BT-549 [2]) of 95.3% and a normalised response (Hs578T [3]) of 110%. The normalised response (MDA-MB-436) was 108%, the normalised response (DU-4475 [4]) was 118% and the normalised response (MDA-MB-453 [5]) was 106%. The normalised response (HCC1937) was 102%, the normalised response (CAL-51 [6]) was 115% and the normalised response (CAL-120 [7]) was 104%. It also gave a normalised response (MFM-223 [8]) of 103%, a normalised response (HCC1143 [9]) of 119% and a normalised response (CAL-148 [10]) of 113%. The normalised response (HDQ-P1 [11]) was 112%, the normalised response (HCC1599 [12]) was 122% and the normalised response (BT-474 [13]) was 104%. The normalised response (CAL-85-1 [14]) was 102%.
CS(=O)(=O)c1ccc(C(=O)Nc2ccc(Cl)c(-c3ccccn3)c2)c(Cl)c1 [Vismodegib] (10 nM) gave a normalised response (MCF-10A [1]) of 98.8%, a normalised response (BT-549 [2]) of 90.9% and a normalised response (MDA-MB-231 [15]) of 96.3%. It also gave a normalised response (Hs578T [3]) of 111%, a normalised response (MDA-MB-436) of 104% and a normalised response (DU-4475 [4]) of 96.2%. For the same compound, the normalised response (MDA-MB-453 [5]) was 93.7%, the normalised response (CAL-51 [6]) was 97.1% and the normalised response (CAL-120 [7]) was 97.9%. For the same compound, the normalised response (MFM-223 [8]) was 101%, the normalised response (HCC1143 [9]) was 108% and the normalised response (CAL-148 [10]) was 95.4%. The normalised response (HDQ-P1 [11]) was 105%, the normalised response (HCC1599 [12]) was 92.8% and the normalised response (BT-474 [13]) was 99.8%. The normalised response (CAL-85-1 [14]) was 101%.
CNC(=O)c1cccc(-c2ccc3c(N4CCOC[C@@H]4C)nc(N4CCOC[C@@H]4C)nc3n2)c1 [AZD2014] (10 nM) showed a normalised response (MCF-10A [1]) of 105%, a normalised response (BT-549 [2]) of 104% and a normalised response (MDA-MB-231 [15]) of 118%. It also gave a normalised response (MDA-MB-436) of 74%, a normalised response (DU-4475 [4]) of 105% and a normalised response (MDA-MB-453 [5]) of 106%. It also gave a normalised response (HCC1937) of 95.5%, a normalised response (CAL-51 [6]) of 111% and a normalised response (CAL-120 [7]) of 99.7%. The normalised response (MFM-223 [8]) was 97.6%, the normalised response (MDA-MB-468 [16]) was 96.1% and the normalised response (CAL-148 [10]) was 101%. It also gave a normalised response (HDQ-P1 [11]) of 119%, a normalised response (HCC1599 [12]) of 109% and a normalised response (BT-474 [13]) of 104%. For the same compound, the normalised response (CAL-85-1 [14]) was 104%.
Compound O=P1(NCCCl)OCCCN1CCCl (stereo unspecified) [Ifosfamide] (10 nM) has a normalised response (MCF-10A [1]) of 101%, a normalised response (BT-549 [2]) of 104% and a normalised response (MDA-MB-231 [15]) of 82.5%. It also gave a normalised response (MDA-MB-436) of 101%, a normalised response (DU-4475 [4]) of 92.4% and a normalised response (MDA-MB-453 [5]) of 91.9%. The normalised response (HCC1937) was 105%, the normalised response (CAL-51 [6]) was 95.2% and the normalised response (CAL-120 [7]) was 101%. For the same compound, the normalised response (MFM-223 [8]) was 84.7%, the normalised response (HCC1143 [9]) was 112% and the normalised response (MDA-MB-468 [16]) was 112%. For the same compound, the normalised response (CAL-148 [10]) was 103%, the normalised response (HDQ-P1 [11]) was 110% and the normalised response (HCC1599 [12]) was 95.9%. The normalised response (BT-474 [13]) was 96.5% and the normalised response (CAL-85-1 [14]) was 99.5%.
For CO[C@H]1/C=C\C=C(/C)C(=O)NC2=CC(=O)C(NCCN(C)C)=C(C[C@@H](C)C[C@H](OC)[C@H](O)[C@@H](C)/C=C(\C)[C@@H]1OC(N)=O)C2=O [Alvespimycin] (1 nM), the normalised response (MCF-10A [1]) was 100%, the normalised response (BT-549 [2]) was 96% and the normalised response (MDA-MB-231 [15]) was 110%. For the same compound, the normalised response (Hs578T [3]) was 120%, the normalised response (MDA-MB-436) was 99.2% and the normalised response (DU-4475 [4]) was 107%. It also gave a normalised response (MDA-MB-453 [5]) of 104%, a normalised response (HCC1937) of 63.9% and a normalised response (CAL-51 [6]) of 112%. It also gave a normalised response (CAL-120 [7]) of 104%, a normalised response (MFM-223 [8]) of 92.1% and a normalised response (HCC1143 [9]) of 118%. For the same compound, the normalised response (CAL-148 [10]) was 106%, the normalised response (HDQ-P1 [11]) was 124% and the normalised response (HCC1599 [12]) was 114%. The normalised response (BT-474 [13]) was 101% and the normalised response (CAL-85-1 [14]) was 97.7%.
O=C(O)CCCCC(CCSCc1ccccc1)SCc1ccccc1 (stereo unspecified) [CPI-613] (10 nM) showed a normalised response (MCF-10A [1]) of 82.5%, a normalised response (BT-549 [2]) of 84.7% and a normalised response (MDA-MB-231 [15]) of 104%. For the same compound, the normalised response (DU-4475 [4]) was 100%, the normalised response (MDA-MB-453 [5]) was 94.8% and the normalised response (HCC1937) was 108%. For the same compound, the normalised response (CAL-51 [6]) was 97.4%, the normalised response (CAL-120 [7]) was 102% and the normalised response (MFM-223 [8]) was 99.5%. The normalised response (HCC1143 [9]) was 65.1%, the normalised response (MDA-MB-468 [16]) was 96.7% and the normalised response (CAL-148 [10]) was 75.2%. For the same compound, the normalised response (HDQ-P1 [11]) was 119%, the normalised response (HCC1599 [12]) was 104% and the normalised response (BT-474 [13]) was 101%. For the same compound, the normalised response (CAL-85-1 [14]) was 98.8%.
C[C@]12CC[C@@H]3c4ccc(OC(=O)N(CCCl)CCCl)cc4CC[C@H]3[C@@H]1CC[C@@H]2O [Estramustine] (10 nM) was tested, and the normalised response (MCF-10A [1]) was 105%, the normalised response (BT-549 [2]) was 115% and the normalised response (MDA-MB-231 [15]) was 91.3%. The normalised response (MDA-MB-436) was 93.8%, the normalised response (DU-4475 [4]) was 94.2% and the normalised response (MDA-MB-453 [5]) was 71.4%. The normalised response (HCC1937) was 100%, the normalised response (CAL-51 [6]) was 86.9% and the normalised response (CAL-120 [7]) was 101%. It also gave a normalised response (MFM-223 [8]) of 89.1%, a normalised response (HCC1143 [9]) of 67% and a normalised response (CAL-148 [10]) of 105%. For the same compound, the normalised response (HDQ-P1 [11]) was 114%, the normalised response (HCC1599 [12]) was 93.5% and the normalised response (BT-474 [13]) was 98.3%. The normalised response (CAL-85-1 [14]) was 93.2%.
For Cn1cc(C2=Nc3cc(NC(=O)C(N)C4CCCCC4)cc4c3C2=CNNC4=O)cn1 (stereo unspecified) (10 nM), the normalised response (BT-549 [2]) was 108%, the normalised response (MDA-MB-231 [15]) was 86.1% and the normalised response (Hs578T [3]) was 117%. For the same compound, the normalised response (MDA-MB-436) was 75%, the normalised response (DU-4475 [4]) was 92.8% and the normalised response (MDA-MB-453 [5]) was 90%. The normalised response (HCC1937) was 96.5%, the normalised response (CAL-51 [6]) was 103% and the normalised response (CAL-120 [7]) was 96.5%. For the same compound, the normalised response (MFM-223 [8]) was 98.1%, the normalised response (HCC1143 [9]) was 80.5% and the normalised response (CAL-148 [10]) was 93.5%. It also gave a normalised response (HDQ-P1 [11]) of 104%, a normalised response (HCC1599 [12]) of 94.4% and a normalised response (BT-474 [13]) of 96.1%. It also gave a normalised response (CAL-85-1 [14]) of 100%.
CN1CCN(CCOc2cc(OC3CCOCC3)c3c(Nc4c(Cl)ccc5c4OCO5)ncnc3c2)CC1 [Saracatinib] (1 nM) was tested, and the normalised response (MCF-10A [17]) was 93%, the normalised response (BT-549 [18]) was 79.6% and the normalised response (MDA-MB-231 [19]) was 89.9%. For the same compound, the normalised response (Hs578T [20]) was 97.7%, the normalised response (DU-4475 [21]) was 97.5% and the normalised response (MDA-MB-453 [22]) was 102%. For the same compound, the normalised response (CAL-51 [23]) was 102%, the normalised response (CAL-120 [24]) was 99% and the normalised response (MFM-223 [25]) was 95.8%. It also gave a normalised response (HCC1143 [26]) of 115%, a normalised response (MDA-MB-468 [27]) of 69% and a normalised response (CAL-148 [28]) of 98.9%. It also gave a normalised response (HDQ-P1 [29]) of 93.9%, a normalised response (HCC1599 [30]) of 94% and a normalised response (BT-474 [31]) of 97.4%. For the same compound, the normalised response (CAL-85-1 [32]) was 103%.
